Reference: article PMC6509187

Legend:
[1] = molecular target: nonmuscle myosin heavy chain IIA (NMHC-IIA) (pig (endogenous in PAMs)); assay: co-IP
[2] = molecular target: nonmuscle myosin heavy chain IIA (NMHC-IIA) (pig (endogenous in PAMs)); assay: co-IP; NMHC-IIA immunoprecipitated from membrane proteins (native membrane protein extraction kit) of PRRSV-infected PAMs; immunoblot
[3] = molecular target: NMHC-IIA (endogenous in CRL-2843-CD163 cells) (pig (endogenous in CRL-2843-CD163)); assay: co-IP; CRL-2843-CD163 cells transfected with 3×Flag-DAP12, 3×Flag-DAP12 mutants or Syk-myc-his for 48 h; endogenous NMHC-IIA immunoprecipitated from whole-cell lysates; immunoblot

binding [1]: binds
binding [2]: binds
B1: DNAX activation protein of 12 kDa (DAP12) (protein, UniProt Q9TU45 26-108)
chain: QRECSCSAVSPGILAGIVLGDLVLTLLIALAVYSLGRLVPRTRGAVDVTRKQHIAETESAYQELQGQRSDVYSDLNTQRQYYK

binding [3]: binds
B2: 3×Flag-DAP12 (in CRL-2843-CD163 cells) (protein, UniProt Q9TU45 26-108)
chain: B1 chain

No constants are given. Whether binding was seen depends on the method and setting. In cells and extracts the contact can be indirect. A result given as binding can be weak or reduced; the word gives no strength. For part of these data: Tags and fused reporters may be left off the sequences shown. Each block holds one binder with its values, some of them ahead of it.
